Molecular target: T1, Aromatase (Homo sapiens, UniProt P11511)
T1 sequence (P11511 whole entry): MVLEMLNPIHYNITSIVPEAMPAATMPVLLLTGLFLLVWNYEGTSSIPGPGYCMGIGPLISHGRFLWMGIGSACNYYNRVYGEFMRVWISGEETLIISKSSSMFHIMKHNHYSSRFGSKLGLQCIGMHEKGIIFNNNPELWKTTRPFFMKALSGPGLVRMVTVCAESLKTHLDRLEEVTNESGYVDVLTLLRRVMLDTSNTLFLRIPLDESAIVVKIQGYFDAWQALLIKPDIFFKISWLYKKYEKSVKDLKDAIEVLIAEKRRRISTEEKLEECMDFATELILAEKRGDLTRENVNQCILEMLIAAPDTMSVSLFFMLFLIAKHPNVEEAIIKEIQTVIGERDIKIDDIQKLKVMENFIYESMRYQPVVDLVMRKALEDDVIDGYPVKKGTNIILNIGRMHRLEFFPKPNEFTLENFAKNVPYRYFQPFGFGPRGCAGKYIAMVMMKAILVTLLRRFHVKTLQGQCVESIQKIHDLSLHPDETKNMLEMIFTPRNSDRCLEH

Compound: CC(C)(C#N)c1cc(Cn2cncn2)cc(C(C)(C)C#N)c1 [ANASTROZOLE]
- IC50: 3.6 nM
